Assay results taken from publication doi:10.1101/2021.05.14.444196.

Sequences of proteins named here, by UniProt entry; tags and fusion partners are left off. A change or cut given only in a name is not applied to a line headed by its entry.
UniProt P02458: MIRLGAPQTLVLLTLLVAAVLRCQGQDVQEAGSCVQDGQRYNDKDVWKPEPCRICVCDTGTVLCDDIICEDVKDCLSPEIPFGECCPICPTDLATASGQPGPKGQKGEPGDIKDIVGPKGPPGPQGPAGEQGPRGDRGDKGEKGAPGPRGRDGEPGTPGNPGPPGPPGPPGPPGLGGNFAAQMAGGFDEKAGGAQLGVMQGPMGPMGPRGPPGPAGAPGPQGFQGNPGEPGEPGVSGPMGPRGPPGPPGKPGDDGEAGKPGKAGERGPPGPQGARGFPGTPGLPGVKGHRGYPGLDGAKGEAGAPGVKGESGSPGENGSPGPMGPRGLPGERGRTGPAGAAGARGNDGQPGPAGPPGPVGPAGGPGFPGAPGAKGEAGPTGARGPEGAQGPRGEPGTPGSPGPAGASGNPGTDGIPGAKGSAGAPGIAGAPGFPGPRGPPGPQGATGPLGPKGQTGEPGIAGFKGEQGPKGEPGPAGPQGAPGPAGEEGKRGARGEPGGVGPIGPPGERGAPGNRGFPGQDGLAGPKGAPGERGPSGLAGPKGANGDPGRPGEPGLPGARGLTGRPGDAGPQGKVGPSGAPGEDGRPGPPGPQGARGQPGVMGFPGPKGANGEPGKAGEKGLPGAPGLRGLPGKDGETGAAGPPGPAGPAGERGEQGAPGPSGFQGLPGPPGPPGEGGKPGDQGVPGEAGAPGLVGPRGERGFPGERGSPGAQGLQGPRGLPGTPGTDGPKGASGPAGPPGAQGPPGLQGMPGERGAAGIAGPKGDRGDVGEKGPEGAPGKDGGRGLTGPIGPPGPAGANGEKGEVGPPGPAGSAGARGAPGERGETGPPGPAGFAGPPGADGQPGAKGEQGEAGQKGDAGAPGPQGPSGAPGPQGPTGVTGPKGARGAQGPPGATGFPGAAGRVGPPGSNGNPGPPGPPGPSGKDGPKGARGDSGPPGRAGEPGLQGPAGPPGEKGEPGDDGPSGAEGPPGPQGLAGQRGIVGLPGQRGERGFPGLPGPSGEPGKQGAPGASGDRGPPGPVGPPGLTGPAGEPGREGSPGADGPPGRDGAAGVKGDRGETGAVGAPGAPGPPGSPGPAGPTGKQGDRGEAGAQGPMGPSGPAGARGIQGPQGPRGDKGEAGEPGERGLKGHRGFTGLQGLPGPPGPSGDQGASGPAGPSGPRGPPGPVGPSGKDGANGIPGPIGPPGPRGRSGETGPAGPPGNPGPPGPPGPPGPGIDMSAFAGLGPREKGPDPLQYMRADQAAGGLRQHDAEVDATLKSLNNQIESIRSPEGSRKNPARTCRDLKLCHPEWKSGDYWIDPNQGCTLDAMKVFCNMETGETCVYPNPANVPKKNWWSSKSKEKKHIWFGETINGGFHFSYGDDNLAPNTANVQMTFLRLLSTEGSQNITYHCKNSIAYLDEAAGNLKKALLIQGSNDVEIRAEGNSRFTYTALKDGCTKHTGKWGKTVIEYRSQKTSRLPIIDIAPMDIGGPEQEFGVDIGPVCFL

Biological target: T1, recombinant LAIR-1 ectodomain (human) (UniProt Q6GTX8)
T1 sequence: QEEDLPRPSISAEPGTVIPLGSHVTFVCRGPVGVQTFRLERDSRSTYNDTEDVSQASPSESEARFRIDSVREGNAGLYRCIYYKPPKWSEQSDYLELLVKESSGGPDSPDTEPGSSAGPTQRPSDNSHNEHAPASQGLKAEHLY
Test: affinity purification with mass spectrometry

Human collagen II (from UniProt P02458) was tested. Which binding did it give?
Its binding is “binds”.

These are yes or no findings as the source states them, for the method shown. Binding seen in cells or lysates may run through a third protein. These calls come from enrichment with a bait or labelling near it, and not all partners need be listed.
